Measured values: PMC6963571
No constants are given. Whether binding was seen depends on the method and setting. Some binding calls cover weakened binding; strength is not graded here.

Biological target: T1, genetically modified nitroreductase (NfnB-Cys) (Escherichia coli K-12) (UniProt P38489)
T1 sequence: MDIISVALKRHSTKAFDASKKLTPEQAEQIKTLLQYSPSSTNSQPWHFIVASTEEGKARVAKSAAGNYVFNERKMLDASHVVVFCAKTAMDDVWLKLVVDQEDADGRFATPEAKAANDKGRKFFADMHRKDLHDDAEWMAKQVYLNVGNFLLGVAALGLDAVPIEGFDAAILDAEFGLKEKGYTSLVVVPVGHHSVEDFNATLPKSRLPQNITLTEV
Assay: native gel or EMSA; both purified

With CHHHHHHRRRRRRRRRHHHHHHC [HR9] the binding was “binds”.

For KETWWETWWTEWSQPKKKRKV [Pep-1], the binding was “binds”.
